Values as published with doi:10.1371/journal.pone.0140310, rounded.

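The test systems are human melanoma cell lines, treated with two drugs together for 72 h and then stained and imaged. The read-out is the fraction of cleaved-PARP-positive nuclei, in % of that fraction in the DMSO control; 200 means twice the control level of this apoptosis marker. Every drug was used at one fixed concentration, the higher of two screened. These are primary screening values without error estimates. The marker varies much from line to line, for technical or biological reasons.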 An unselected part of the screen is shown. An entry leaves out what has no value listed here. A dash means that no value is listed here.

Compounds and concentrations:
A-769662, 10000 nM: N#Cc1c(O)c2c(-c3ccc(-c4ccccc4O)cc3)csc2[nH]c1=O
nilotinib, 1000 nM: Cc1cn(-c2cc(NC(=O)c3ccc(C)c(Nc4nccc(-c5cccnc5)n4)c3)cc(C(F)(F)F)c2)cn1
FH535, 5000 nM: Cc1cc([N+](=O)[O-])ccc1NS(=O)(=O)c1cc(Cl)ccc1Cl
sunitinib, 2000 nM: CCN(CC)CCNC(=O)c1c(C)[nH]c(/C=C2\C(=O)Nc3ccc(F)cc32)c1C
nutlin-3, 500 nM: COc1ccc(C2=N[C@@H](c3ccc(Cl)cc3)[C@@H](c3ccc(Cl)cc3)N2C(=O)N2CCNC(=O)C2)c(OC(C)C)c1
lestaurtinib, 20 nM: C[C@]12O[C@H](C[C@]1(O)CO)n1c3ccccc3c3c4c(c5c6ccccc6n2c5c31)CNC4=O
BI-78D3, 1000 nM: O=c1[nH]nc(Sc2ncc([N+](=O)[O-])s2)n1-c1ccc2c(c1)OCCO2
GW441756, 2000 nM: Cn1cc(/C=C2\C(=O)Nc3cccnc32)c2ccccc21
vismodegib, 5000 nM: CS(=O)(=O)c1ccc(C(=O)Nc2ccc(Cl)c(-c3ccccn3)c2)c(Cl)c1
crizotinib, 1000 nM: C[C@@H](Oc1cc(-c2cnn(C3CCNCC3)c2)cnc1N)c1c(Cl)ccc(F)c1Cl

| Drugs | WM1745 | WM3526 | LB2518-MEL | WM115 | WM1716 | LOX IMVI |
|---|---|---|---|---|---|---|
| A-769662 + sunitinib | - | 173 | 109 | 275 | 135 | 106 |
| crizotinib + A-769662 | - | 72.7 | 140 | 206 | 42.7 | 44.2 |
| lestaurtinib + sunitinib | 180 | 386 | 122 | 243 | 95.5 | 226 |
| GW441756 + nutlin-3 | - | 197 | 188 | 221 | 137 | 216 |
| vismodegib + GW441756 | - | 94.2 | 80.7 | 85.7 | 30.6 | 53.4 |
| BI-78D3 + nutlin-3 | 131 | 56.7 | 92.3 | 196 | 117 | 149 |
| BI-78D3 + FH535 | - | 298 | - | 946 | 58.1 | 20.1 |
| nilotinib + nutlin-3 | 115 | 127 | 111 | 169 | 136 | 80.6 |
| lestaurtinib + vismodegib | 91.7 | 285 | 657 | 226 | 14.2 | 120 |
| FH535 + nilotinib | - | 101 | 213 | 183 | 33.2 | 135 |
| lestaurtinib + FH535 | - | 300 | 419 | 94.2 | 109 | 123 |
| A-769662 + vismodegib | - | 59.7 | 98.5 | 392 | 83.7 | 84.8 |
| FH535 + nutlin-3 | - | 33.5 | 88.8 | 141 | 176 | 126 |
| vismodegib + crizotinib | 110 | 112 | 86.0 | 155 | 73.7 | 133 |
| sunitinib + crizotinib | 233 | 687 | 733 | 489 | 92.7 | 56.4 |
| A-769662 + GW441756 | 102 | 90.1 | 36.8 | 51.4 | 30.5 | 39.9 |
| A-769662 + nilotinib | - | 139 | 46.4 | 97.9 | 82.0 | 124 |
| nutlin-3 + vismodegib | 99.3 | 96.8 | 162 | 149 | 53.1 | 302 |
| crizotinib + nilotinib | 183 | 102 | 65.5 | 184 | 99.3 | 272 |
| FH535 + crizotinib | - | 330 | 75.0 | 235 | 49.9 | 43.2 |
| crizotinib + BI-78D3 | 103 | 77.5 | 169 | 53.3 | 43.8 | 63.0 |
| FH535 + vismodegib | - | 131 | 72.6 | 114 | 152 | 139 |
| sunitinib + GW441756 | - | 271 | 109 | 54.0 | 104 | 133 |
| nilotinib + BI-78D3 | 80.6 | 174 | 40.9 | 123 | 38.1 | 68.9 |
| nilotinib + GW441756 | - | 287 | 92.1 | 95.0 | 45.4 | 74.3 |
| lestaurtinib + BI-78D3 | 87.6 | 158 | - | 208 | 60.2 | 97.0 |
| sunitinib + nutlin-3 | 226 | 334 | 230 | 267 | 29.0 | 112 |

For reference, 2 entries once more:

{"drugs": "sunitinib + GW441756", "WM3526": 271, "LB2518-MEL": 109, "WM115": 54.0, "WM1716": 104, "LOX IMVI": 133}
{"drugs": "lestaurtinib + FH535", "WM3526": 300, "LB2518-MEL": 419, "WM115": 94.2, "WM1716": 109, "LOX IMVI": 123}